Source: PubChem BioAssay AID1259424 (University of Nebraska Medical Center, 2018)

- Purpose: 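Rank knockdowns across the genome by resemblance to the KSR1 depletion profile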 (primary screen)
- System: human HCT116 colon cancer cells
- Reagent: siRNA pool against human genes, 50 nM
- Measurement: 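Six signature mRNAs by branched-DNA multiplex assay, scaled to two housekeeping genes and non-targeting median, log2; matched to mean KSR1 knockdown profile by Pearson correlation and euclidean distance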
- Reading the numbers: mean correlation with KSR1 profile and KSR1 correlation: higher = expression change more like KSR1 knockdown; mean distance from KSR1 profile: higher = expression change less like KSR1 knockdown
Here is an unselected part of about 14,000 deposited reagents. 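Higher correlation or smaller distance means closer resemblance to KSR1 loss; control wells, including KSR1 knockdowns, recur on many plates.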 Not all columns of the deposit are shown. Not stated in the record: the time to read-out.

| Target gene | mean correlation with KSR1 profile | mean distance from KSR1 profile | KSR1 correlation, replicate 1 | KSR1 correlation, replicate 2 |
| --- | --- | --- | --- | --- |
| PNMA6A | 0.243 | 4.89 | 0.295 | 0.185 |
| CEBPA | 0.109 | 1.73 | 0.343 | 0.432 |
| PTPRA | -0.42 | 3.62 | -0.282 | -0.615 |
| NARS1 | -0.137 | 1.58 | -0.0743 | 0.144 |
| LRRC4C | -0.153 | 2.3 | -0.276 | 0.14 |
| ING1 | 0.17 | 2.17 | 0.437 | 0.182 |
| H2BC14 | 0.0254 | 3.58 | 0.39 | 0.0312 |
| ZNFX1 | -0.187 | 1.87 | -0.0902 | -0.148 |
| TBL2 | 0.298 | 1.5 | 0.216 | -0.115 |
| BCAS4 | -0.399 | 1.67 | -0.591 | -0.284 |
| SSR4 | 0.574 | 1.3 | 0.314 | 0.384 |
| PLXDC1 | -0.0354 | 4.19 | -0.57 | 0.818 |
| PIP | -0.426 | 2.51 | -0.29 | -0.263 |
| ADGRF2P | 0.231 | 2.23 | 0.0962 | 0.249 |
| MRPL35 | -0.441 | 3.92 | -0.505 | 0.141 |
| AARS1 | 0.873 | 2.43 | 0.867 | 0.878 |
| DGAT2 | -0.556 | 2.9 | -0.516 | -0.415 |
| RNF123 | -0.377 | 4.4 | -0.339 | -0.339 |
| HOXB9 | -0.246 | 3.98 | -0.244 | -0.272 |
| WBP2 | 0.593 | 2.18 | 0.629 | 0.535 |
| BRPF1 | -0.024 | 2 | 0.159 | 0.06 |
| TMEM176B | 0.181 | 1.84 | 0.158 | -0.0633 |
| KCNJ1 | -0.375 | 1.57 | -0.224 | -0.59 |
| MMP11 | 0.111 | 3.24 | 0.113 | 0.0714 |
| IP6K3 | -0.21 | 3.48 | -0.223 | 0.148 |
| ATP1B1 | 0.24 | 2.07 | 0.209 | 0.347 |
| AQP3 | -0.256 | 1.9 | -0.413 | -0.141 |
| PCK1 | 0.428 | 2.82 | 0.501 | 0.649 |
| CCDC170 | 0.19 | 1.71 | 0.18 | -0.193 |
| COPS8 | 0.0291 | 2.15 | 0.128 | -0.16 |
| MTARC2 | -0.826 | 1.94 | -0.914 | -0.789 |
| CDK16 | 0.171 | 1.68 | 0.641 | -0.0113 |
| DSG1 | 0.138 | 2.93 | 0.247 | -0.262 |
| CPXM1 | -0.346 | 2.17 | -0.321 | -0.586 |
